PubChem BioAssay AID1259425 | University of Nebraska Medical Center, 2018
Test: 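Seek colon cancer weak points whose silencing resembles KSR1 loss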 (primary screen). System: HCT116 human colon cancer cells. Knock-down reagent: siRNA pool against human genes, 50 nM siRNA. Measurement: 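mRNA of six signature genes measured together by branched-DNA assay after 50 nM siRNA pool, blank removed, divided by geometric mean of two housekeeping genes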. Scale: BNIP3L mRNA: higher = more BNIP3L transcript after knockdown; NDRG1 mRNA: higher = more NDRG1 transcript after knockdown.
Here is a random part of about 14,000 deposited reagents. The numbers tell different reagents against one gene apart. Further read-outs or replicates are left out here. Not stated in the record: the time to read-out.

JADE3 | BNIP3L mRNA, set 1 = 0.102; NDRG1 mRNA, set 1 = 0.597
ASCC3 #1 | BNIP3L mRNA, set 1 = 0.0983; NDRG1 mRNA, set 1 = 0.0758
ASCC3 #2 | BNIP3L mRNA, set 1 = 0.0888; NDRG1 mRNA, set 1 = 0.615
BIN1 | BNIP3L mRNA, set 1 = 0.062; NDRG1 mRNA, set 1 = 0.187
TENM2 | BNIP3L mRNA, set 1 = 0.323; NDRG1 mRNA, set 1 = 0.159
CFAP300 | BNIP3L mRNA, set 1 = 0.117; NDRG1 mRNA, set 1 = 0.169
LIPA | BNIP3L mRNA, set 1 = 0.112; NDRG1 mRNA, set 1 = 0.114
ZNF34 | BNIP3L mRNA, set 1 = 0.0475; NDRG1 mRNA, set 1 = 0.366
NAA35 | BNIP3L mRNA, set 1 = 0.0673; NDRG1 mRNA, set 1 = 0.15
KCNQ4 | BNIP3L mRNA, set 1 = 0.183; NDRG1 mRNA, set 1 = 0.398
PAK1IP1 | BNIP3L mRNA, set 1 = 0.0924; NDRG1 mRNA, set 1 = 0.325
FKBP6 | BNIP3L mRNA, set 1 = 0.0577; NDRG1 mRNA, set 1 = 0.279
NDUFB5 | BNIP3L mRNA, set 1 = 0.159; NDRG1 mRNA, set 1 = 0.308
AGPAT4 | BNIP3L mRNA, set 1 = 0.245; NDRG1 mRNA, set 1 = 0.888
AMBN | BNIP3L mRNA, set 1 = 0.0619; NDRG1 mRNA, set 1 = 0.241
COXFA4L2 | BNIP3L mRNA, set 1 = 0.121; NDRG1 mRNA, set 1 = 0.223
H3C10 | BNIP3L mRNA, set 1 = 0.156; NDRG1 mRNA, set 1 = 0.422
NR1H4 | BNIP3L mRNA, set 1 = 0.0454; NDRG1 mRNA, set 1 = 0.142
TLE1 | BNIP3L mRNA, set 1 = 0.111; NDRG1 mRNA, set 1 = 0.335
DPF2 | BNIP3L mRNA, set 1 = 0.0659; NDRG1 mRNA, set 1 = 0.207
SMAD2 | BNIP3L mRNA, set 1 = 0.178; NDRG1 mRNA, set 1 = 0.0395
REG1CP | BNIP3L mRNA, set 1 = 0.135; NDRG1 mRNA, set 1 = 0.179
RUNX2 | BNIP3L mRNA, set 1 = 0.0814; NDRG1 mRNA, set 1 = 0.506
TMSB10 | BNIP3L mRNA, set 1 = 0.0675; NDRG1 mRNA, set 1 = 0.218
AKAP6 | BNIP3L mRNA, set 1 = 0.17; NDRG1 mRNA, set 1 = 0.0896
ZDHHC13 | BNIP3L mRNA, set 1 = 0.075; NDRG1 mRNA, set 1 = 0.106
WDR37 | BNIP3L mRNA, set 1 = 0.0828; NDRG1 mRNA, set 1 = 0.669
PCDH18 | BNIP3L mRNA, set 1 = 0.149; NDRG1 mRNA, set 1 = 0.106
SEMG1 | BNIP3L mRNA, set 1 = 0.201; NDRG1 mRNA, set 1 = 0.406
GPRC6A | BNIP3L mRNA, set 1 = 0.0848; NDRG1 mRNA, set 1 = 0.416
PAQR6 | BNIP3L mRNA, set 1 = 0.137; NDRG1 mRNA, set 1 = 0.38
MYO1E | BNIP3L mRNA, set 1 = 0.128; NDRG1 mRNA, set 1 = 0.262
TRDMT1 | BNIP3L mRNA, set 1 = 0.11; NDRG1 mRNA, set 1 = 0.307
NACA | BNIP3L mRNA, set 1 = 0.207; NDRG1 mRNA, set 1 = 0.152
VDR | BNIP3L mRNA, set 1 = 0.0746; NDRG1 mRNA, set 1 = 0.0796
OR12D2 | BNIP3L mRNA, set 1 = 0.181; NDRG1 mRNA, set 1 = 0.522

Copied from the listing for reference:
AGPAT4 | BNIP3L mRNA, set 1 = 0.245; NDRG1 mRNA, set 1 = 0.888
AMBN | BNIP3L mRNA, set 1 = 0.0619; NDRG1 mRNA, set 1 = 0.241
COXFA4L2 | BNIP3L mRNA, set 1 = 0.121; NDRG1 mRNA, set 1 = 0.223
H3C10 | BNIP3L mRNA, set 1 = 0.156; NDRG1 mRNA, set 1 = 0.422
